Assay results as given in article PMC7819943, “Rice protein-binding microarrays: a tool to detect cis-acting elements near promoter regions in rice”.
This is one part of the list.

The chains behind the UniProt entries cited, without tags or fusion partners.
UniProt Q0JBA9, entry or part of it: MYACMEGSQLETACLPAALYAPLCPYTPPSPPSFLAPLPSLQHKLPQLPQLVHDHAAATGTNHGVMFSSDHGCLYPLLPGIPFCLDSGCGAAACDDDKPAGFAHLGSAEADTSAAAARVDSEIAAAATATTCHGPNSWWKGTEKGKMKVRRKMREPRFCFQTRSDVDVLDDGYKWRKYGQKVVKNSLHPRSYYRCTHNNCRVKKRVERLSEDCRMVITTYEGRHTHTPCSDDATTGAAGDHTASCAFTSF

These sequences were tested against OsWRKY34 (Oryza sativa, UniProt Q0JBA9 1-250) (assay: protein-binding microarray (RPBM); PBS, 2% BSA, 51.3 ng/ul salmon testes DNA, 50 uM zinc acetate, 200 nM TF, 25 C, 1 h; high values mean tight binding). Settings: protein: recombinant; tags: N-terminal polyhistidine and DsRed monomer fusion (pET32a); label: CyDye5-dUTP incorporated in the synthesized complementary strand; 3' TTTTT single-stranded linker to array surface; dsDNA, one strand shown.
Procedure, shortened: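 Per-feature fluorescence intensity (arbitrary units), read on an Axon 4000B scanner, is the binding signal. Transcription factors carrying an N-terminal polyhistidine tag and DsRed fusion were expressed in E. coli BL21-CodonPlus and purified on Ni–NTA. A custom Agilent array, made double-stranded by primer extension with Cy5-dUTP and blocked with 2% BSA, was incubated with 200 nM protein in PBS, 2% BSA, salmon testes DNA and 50 µM zinc acetate at 25 °C for 1 h and then washed.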
In the case of “TTAGCTAGTTTGCCCCAACACACCACACACTACACATGCACGGAGTCACCTAGTGCAG”, the binding signal is reported as 8460 fluorescence intensity (a.u.).
In the case of “TCTCTTTTCTTTTCTTTCTTTTTATTTTGTTGTTCCTTTACGGAGTCACCTAGTGCAG”, the binding signal is reported as 12600 fluorescence intensity (a.u.).
For “GGCCGTCCATCGCGCCACATCCAACGGCCACCATGCGACGCGGAGTCACCTAGTGCAG”, the binding signal was 9510 fluorescence intensity (a.u.).
In the case of “ATACTATAACATATCACTTCCCGTTCTAGATTTACCTTTTCGGAGTCACCTAGTGCAG”, the binding signal is reported as 8040 fluorescence intensity (a.u.).
For “TTGCTTGCCGTTGCTGGCTGTGTCAGTGTGCCACCCACTCCGGAGTCACCTAGTGCAG”, the binding signal was 9100 fluorescence intensity (a.u.).
For “TTACTATATAGCCGTGCCTCGTTTTGTTAATAAAAAGCTTCGGAGTCACCTAGTGCAG”, the binding signal was 8450 fluorescence intensity (a.u.).
With “GCATTTCCAGGCCCACGGAAGCCACGCTTCTTCTCCAGCGCGGAGTCACCTAGTGCAG” the binding signal was 8060 fluorescence intensity (a.u.).
For “GGCGTGATGTTTTCTGCTGAAGTAATTTTCTAGTTTCTCACGGAGTCACCTAGTGCAG”, the binding signal was 9090 fluorescence intensity (a.u.).
For “ATTTTTTAGCCAATTTACACCGTAATCACTGAATGCTAATCGGAGTCACCTAGTGCAG”, the binding signal was 8510 fluorescence intensity (a.u.).
In the case of “CCCATGCCACTGCAACCTAGACCTCTCTACTAGCTAGCTTCGGAGTCACCTAGTGCAG”, the binding signal is reported as 9040 fluorescence intensity (a.u.).
In the case of “ATTCTTTTTTCTCGGAGAGACGGCCCAACCCAACCGAATTCGGAGTCACCTAGTGCAG”, the binding signal is reported as 9880 fluorescence intensity (a.u.).
“GTCGCTTGTCGTTGTTGCCCTGAACTGTTGGTGCTGGTTCCGGAGTCACCTAGTGCAG” was tested, and the binding signal was 9320 fluorescence intensity (a.u.).
For “TCCTGTGTTTTTCCTGTGGTTCAATCAAACGGTCATTCCTCGGAGTCACCTAGTGCAG”, the binding signal was 9910 fluorescence intensity (a.u.).
“AGTTGTTGTTTCATAGTTGAGTTTTGGTCGTGTCAACATTCGGAGTCACCTAGTGCAG” was tested, and the binding signal was 12900 fluorescence intensity (a.u.).
With “CTTTTAATTTCCCTCGTGTCATGTATAGTAGTACTCCACCCGGAGTCACCTAGTGCAG” the binding signal was 8900 fluorescence intensity (a.u.).
With “CAAGCATTTAATCTTCTTTTGTGTGTGTTGTTTTTTTTCTCGGAGTCACCTAGTGCAG” the binding signal was 9250 fluorescence intensity (a.u.).
“TGAATAGTACTTTATGTGTATGTGTGACGTGACTATTTTCCGGAGTCACCTAGTGCAG” was tested, and the binding signal was 8990 fluorescence intensity (a.u.).
In the case of “TTCATCATCCTCCATTTCTACACCGAGAATCGAACCACGACGGAGTCACCTAGTGCAG”, the binding signal is reported as 9200 fluorescence intensity (a.u.).
“TCTCGTCCACAGTTTCACGTCATTGGATACATGTTTCTATCGGAGTCACCTAGTGCAG” was tested, and the binding signal was 10000 fluorescence intensity (a.u.).
For “ACATTGTTGTGTGTGGGTCATTTGTTCATTCATTTGATTCCGGAGTCACCTAGTGCAG”, the binding signal was 11600 fluorescence intensity (a.u.).
For “TCACGTTGGCGCCGCGCACGCACACCTCGCCGCTCTTCCCCGGAGTCACCTAGTGCAG”, the binding signal was 8720 fluorescence intensity (a.u.).
In the case of “TATAAGATTGTGGTTTATCCGTTTTTCCTGCTTTTCCAAACGGAGTCACCTAGTGCAG”, the binding signal is reported as 10200 fluorescence intensity (a.u.).
For “TCATCAGTCATCACCCACATCGCTCGCGCTCCCATTAAAACGGAGTCACCTAGTGCAG”, the binding signal was 8990 fluorescence intensity (a.u.).
In the case of “TTAATATATTTTCCTGTAATCTATTTTCTTTTTCTTTCTTCGGAGTCACCTAGTGCAG”, the binding signal is reported as 8570 fluorescence intensity (a.u.).
In the case of “GCAGTAGTTCCCGTCCCGATTGAATCGCACCGCCAGCACCCGGAGTCACCTAGTGCAG”, the binding signal is reported as 8060 fluorescence intensity (a.u.).
For “CTCTAAACCTCCATCGCACAGTTTCTATCCGATCACCTTCCGGAGTCACCTAGTGCAG”, the binding signal was 9350 fluorescence intensity (a.u.).
In the case of “CGCACCCATCTCGTCCAGTCTTTCTCCGTCGTCTTCCTCTCGGAGTCACCTAGTGCAG”, the binding signal is reported as 11600 fluorescence intensity (a.u.).
In the case of “CAGTTCGTTTGACTTGGTTTCTGGCCGCGACGTCTGCTTTCGGAGTCACCTAGTGCAG”, the binding signal is reported as 9060 fluorescence intensity (a.u.).
With “GGACTTATTCCTATGCGTGCGAATTCTACTCGCGATATATCGGAGTCACCTAGTGCAG” the binding signal was 10100 fluorescence intensity (a.u.).
For “CCTATGGGTTCCACACCTTGGGGTGGGTAGACCGCGCCACCGGAGTCACCTAGTGCAG”, the binding signal was 8900 fluorescence intensity (a.u.).
For “CTCTCTCTCTCCTCGCGTGACTCGCGCGTGCCCTCGCCGCCGGAGTCACCTAGTGCAG”, the binding signal was 8130 fluorescence intensity (a.u.).
In the case of “GCCTGGGATGTTGGGTGCCTTTTCGTTGTCCCTCGTCATTCGGAGTCACCTAGTGCAG”, the binding signal is reported as 8560 fluorescence intensity (a.u.).
“CTCGCGTTTCTGTCTTTTTCTCATGACCCCGAATTTCTCTCGGAGTCACCTAGTGCAG” was tested, and the binding signal was 9950 fluorescence intensity (a.u.).
With “CATCCTATGCTGAGATTTCTTCGTCGCCCGGTGGCCCCGGCGGAGTCACCTAGTGCAG” the binding signal was 8080 fluorescence intensity (a.u.).
“ATTAATTTCTCTTTCTTTTCTTTCTTCTTCTCCTTTTTGTCGGAGTCACCTAGTGCAG” was tested, and the binding signal was 10600 fluorescence intensity (a.u.).
With “CCCCTCCTCGCCGCGCCGCCATCTAGGGTTTCGTCTTCTCCGGAGTCACCTAGTGCAG” the binding signal was 9470 fluorescence intensity (a.u.).
With “ACTGTGCAATTGGTTTTTTTCCATATTTAATGCTTCATATCGGAGTCACCTAGTGCAG” the binding signal was 13200 fluorescence intensity (a.u.).
With “CTATTTTTCTTCTTCCAACCAATCCAGTCCGTCCAGAATACGGAGTCACCTAGTGCAG” the binding signal was 9290 fluorescence intensity (a.u.).
In the case of “CTAGTTGTGTTTGTTAATTTCTTTCTATACATGGGTTACCCGGAGTCACCTAGTGCAG”, the binding signal is reported as 11700 fluorescence intensity (a.u.).
“ACGTACACTCTACCCACACCACCTCGCTCACTCGCTCGCTCGGAGTCACCTAGTGCAG” was tested, and the binding signal was 10900 fluorescence intensity (a.u.).
In the case of “CACCTCACCGTCGCCAGTCGCGCTGCCCAGCCCGCTAGCCCGGAGTCACCTAGTGCAG”, the binding signal is reported as 13400 fluorescence intensity (a.u.).
“CCAAATTGTTGTTGCCACATCCTTGATCGTATGCTTCTTACGGAGTCACCTAGTGCAG” was tested, and the binding signal was 8420 fluorescence intensity (a.u.).
